Key:
Format in all cases: in vivo
[1] = system: soybean cultivars L2084R2, L2711R2X; assay: Field 2012: 2,4-D Low Vol 4 + crop oil drizzled onto soil at R1 stage, Alexander, Iowa (Table 2a)
Method: Plants were treated by drizzling via low pressure spraying the 2,4-D solution onto the soil along each side of the rows when plants are at the R1 stage of growth. The date of planting was May 15, 2012 and the date of harvest was Oct. 2, 2012 at plots in Alexander, Iowa (Table 2a) and Laurel, Iowa (Table 2b). Plants were grown from Roundup Ready seed and were sprayed with glyphosate for weed control. Plants were treated with between 1X and 5.5X of 2,4-D solution mixed with crop oil at 15.3 ounces of 2,4-D Low Vol 4 plus 0.32 ounces crop oil per gallon, where 1X is equivalent to approximately 0.45 pounds acid equivalent of 2,4-D. Two repetitions were performed at different plots. […] The moisture percentages were used in correcting each yield to a 13% moisture basis.

[2] = system: soybean variety Asgrow 2933; assay: Field: side dress with 2,4-D Low Vol 4 solution, Laurel, Iowa (Table 3)
Method: Plants were grown from Roundup Ready variety Asgrow 2933 seed that was treated with accelron (Monsanto) prior to planting. Plants were side dressed by application with a 3-point cultivator modified to spray on the ground in front of the shanks, the shanks then mix the 2,4-D mixture with the soil and move the mixture closer to the plant roots. Plants were treated with between 1X and 4X of 2,4-D Low Vol 4 solution, where 1X is equivalent to approximately 0.19 pounds acid equivalent of 2,4-D. Plants were grown with a row width of 30 inches and row length of 562 feet.

[3] = system: soybean Latham 2767 Roundup Ready; assay: Field: seed treatment with 2,4-D solution 1X-10X, Laurel, Iowa (Table 6); settings: 1X~0.0002968 lb a.e.
Method: Previously untreated soybean seeds were treated with between 1X to 10X of 2,4-D solution, where 1X is equivalent to approximately 0.0002968 pounds acid equivalent of 2,4-D. The seed variety was Latham 2767 Roundup Ready seeds and seeds were planted in Laurel, Iowa with a row width of 30 inches. Plants were sprayed with foliar insecticide and fungicide.

[4] = 1.0X Rate, L2084R2, 1X~0.45 lb a.e.
[5] = 1.0X Rate, L2711R2X, 1X~0.45 lb a.e.
[6] = 1.5X Rate, L2084R2, 1X~0.45 lb a.e.
[7] = 1.5X Rate, L2711R2X, 1X~0.45 lb a.e.
[8] = 2.0X Rate, L2084R2, 1X~0.45 lb a.e.
[9] = 2.5X Rate, L2084R2, 1X~0.45 lb a.e.
[10] = 2.5X Rate, L2711R2X, 1X~0.45 lb a.e.
[11] = 3.0X Rate, L2084R2, 1X~0.45 lb a.e.
[12] = 3.0X Rate, L2711R2X, 1X~0.45 lb a.e.
[13] = Overall location average, all rates, both cultivars

With `O=C(O)COc1ccc(Cl)cc1Cl` [2,4-D, 2,4-Dichlorophenoxyacetic acid] the “Repetition 1 Moisture” value [1, 4] was 4.3%, the “Repetition 2 Moisture” value [1, 4] was 4.9% and the “Repetition 1 Moisture” value [1, 5] was 4.1%. For the same compound, the “Repetition 2 Moisture” value [1, 5] was 4.9%, the “Repetition 1 Moisture” value [1, 6] was 4.3% and the “Repetition 2 Moisture” value [1, 6] was 5.2%. The “Repetition 1 Moisture” value [1, 7] was 4.2%, the “Repetition 2 Moisture” value [1, 7] was 5% and the “Repetition 1 Moisture” value [1, 8] was 4.5%. The “Repetition 2 Moisture” value [1, 8] was 5.1%, the “Repetition 2 Moisture” value ([1]; 2.0X Rate, L2711R2X, 1X~0.45 lb a.e.) was 5% and the “Repetition 1 Moisture” value [1, 9] was 4.3%. For the same compound, the “Repetition 2 Moisture” value [1, 9] was 5.2%, the “Repetition 1 Moisture” value [1, 10] was 4.5% and the “Repetition 2 Moisture” value [1, 10] was 4.9%. For the same compound, the “Repetition 1 Moisture” value [1, 11] was 4.4%, the “Repetition 2 Moisture” value [1, 11] was 5.1% and the “Repetition 1 Moisture” value [1, 12] was 4.6%. The “Repetition 2 Moisture” value [1, 12] was 5.1%, the “Repetition 1 Moisture” value ([1]; 3.5X Rate, L2084R2, 1X~0.45 lb a.e.) was 4.9% and the “Repetition 1 Moisture” value ([1]; 3.5X Rate, L2711R2X, 1X~0.45 lb a.e.) was 4.6%. For the same compound, the “Repetition 1 Moisture” value ([1]; 4.0X Rate, L2084R2, 1X~0.45 lb a.e.) was 4.8%, the “Repetition 1 Moisture” value ([1]; 4.0X Rate, L2711R2X, 1X~0.45 lb a.e.) was 4.8% and the “Repetition 1 Moisture” value ([1]; 4.5X Rate, L2084R2, 1X~0.45 lb a.e.) was 4.9%. The “Repetition 1 Moisture” value ([1]; 4.5X Rate, L2711R2X, 1X~0.45 lb a.e.) was 4.7%, the “Repetition 1 Moisture” value ([1]; 5.0X Rate, L2084R2, 1X~0.45 lb a.e.) was 4.7% and the “Repetition 1 Moisture” value ([1]; 5.0X Rate, L2711R2X, 1X~0.45 lb a.e.) was 4.6%. The “Repetition 1 Moisture” value ([1]; 5.5X Rate, L2084R2, 1X~0.45 lb a.e.) was 4.8%, the “Repetition 1 Moisture” value ([1]; 5.5X Rate, L2711R2X, 1X~0.45 lb a.e.) was 4.9% and the “Repetition 2 Moisture” value ([1]; Average over 1.0X-3.0X Rates, L2084R2) was 5.10%. For the same compound, the “Repetition 2 Moisture” value ([1]; Average over 1.0X-3.0X Rates, L2711R2X) was 4.98%, the “Repetition 1 Moisture” value ([1]; Average over 1.0X-5.5X Rates, L2084R2) was 4.59% and the “Repetition 1 Moisture” value ([1]; Average over 1.0X-5.5X Rates, L2711R2X) was 4.56%. For the same compound, the “Repetition 1 Moisture” value [1, 13] was 4.57%, the “Repetition 2 Moisture” value [1, 13] was 5.04% and the Harvest moisture ([2]; 1X side dress (1X~0.19 lb a.e.)) was 8.8%. For the same compound, the Harvest moisture ([2]; 2X side dress (1X~0.19 lb a.e.)) was 9.4%, the Harvest moisture ([2]; 3X side dress (1X~0.19 lb a.e.)) was 8.3% and the Harvest moisture ([2]; 4X side dress (1X~0.19 lb a.e.)) was 8.7%. It also gave a Harvest moisture ([3]; 1X seed treatment) of 12.7%, a Harvest moisture ([3]; 2X seed treatment) of 15.6% and a Harvest moisture ([3]; 3X seed treatment) of 18.7%. The Harvest moisture ([3]; 4X seed treatment) was 20.5%, the Harvest moisture ([3]; 5X seed treatment) was 22.4% and the Harvest moisture ([3]; 6X seed treatment) was 21.2%. The Harvest moisture ([3]; 7X seed treatment) was 24.1%, the Harvest moisture ([3]; 8X seed treatment) was 24.3% and the Harvest moisture ([3]; 9X seed treatment) was 22.6%. For the same compound, the Harvest moisture ([3]; 10X seed treatment) was 20.3%.

Source: patent US20140371074A1, “METHOD TO INCREASE PLANT YIELD” (priority 2012, published 2014)
